Results taken from doi:10.1101/2022.01.04.474899 (bioRxiv, 2022).
No constants are given. Whether binding was seen depends on the method and setting. Some results given as binding are weak or reduced against the parent protein; the word gives no strength. Values belong to the substance of their own block, whether it stands above or below them.

Protein sequences, listed by entry. Tags and fused reporters are not part of them. Residues count along the entry.
UniProt P35555, residues 2732-2871: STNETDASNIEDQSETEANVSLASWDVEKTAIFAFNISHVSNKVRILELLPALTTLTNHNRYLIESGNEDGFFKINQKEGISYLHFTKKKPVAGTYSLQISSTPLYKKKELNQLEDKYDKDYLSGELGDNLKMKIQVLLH
UniProt Q61554, residues 2734-2873: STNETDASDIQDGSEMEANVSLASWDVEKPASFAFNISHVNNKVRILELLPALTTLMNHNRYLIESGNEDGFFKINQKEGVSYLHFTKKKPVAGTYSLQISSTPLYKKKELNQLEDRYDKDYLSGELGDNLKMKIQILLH

Columns and labels:
[1] = biological target: endogenous human asprosin (human (endogenous in U2OS, WI-26, RPE)) (UniProt P35555); test: native gel or EMSA
[2] = biological target: endogenous human asprosin (human (endogenous in U2OS, WI-26, RPE)) (UniProt P35555); test: SDS-PAGE immunoblot
[3] = biological target: endogenous mouse asprosin (mouse (endogenous in C2C12)) (UniProt Q61554); test: SDS-PAGE immunoblot
[4] = biological target: asprosin-2×Strep-tag II overexpressed in 3T3-L1 cells (human) (UniProt P35555); test: SDS-PAGE immunoblot

- binding [1]: binds
- binding [2]: binds
Substance: endogenous human asprosin (from UniProt P35555 2732-2871)

- binding [3]: binds
Substance: endogenous mouse asprosin (from UniProt Q61554 2734-2873)

- binding [4]: binds
Substance: asprosin-2×Strep-tag II overexpressed in 3T3-L1 cells (from UniProt P35555 2732-2871)
